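Polyketide synthase Pks13, Mycobacterium tuberculosis (UniProt I6X8D2). Enzyme assay of the thioesterase domain of polyketide synthase 13; the read-out is not stated. Compounds at 30 µM. Higher reads as stronger inhibition (inferred from which compounds were picked for retests). About 67,000 compounds were tested under these conditions; 0.46% (about 300) showed 50% or more at least once.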

Chains of the proteins cited; added tags and fusions are not shown.
UniProt I6X8D2, whole entry: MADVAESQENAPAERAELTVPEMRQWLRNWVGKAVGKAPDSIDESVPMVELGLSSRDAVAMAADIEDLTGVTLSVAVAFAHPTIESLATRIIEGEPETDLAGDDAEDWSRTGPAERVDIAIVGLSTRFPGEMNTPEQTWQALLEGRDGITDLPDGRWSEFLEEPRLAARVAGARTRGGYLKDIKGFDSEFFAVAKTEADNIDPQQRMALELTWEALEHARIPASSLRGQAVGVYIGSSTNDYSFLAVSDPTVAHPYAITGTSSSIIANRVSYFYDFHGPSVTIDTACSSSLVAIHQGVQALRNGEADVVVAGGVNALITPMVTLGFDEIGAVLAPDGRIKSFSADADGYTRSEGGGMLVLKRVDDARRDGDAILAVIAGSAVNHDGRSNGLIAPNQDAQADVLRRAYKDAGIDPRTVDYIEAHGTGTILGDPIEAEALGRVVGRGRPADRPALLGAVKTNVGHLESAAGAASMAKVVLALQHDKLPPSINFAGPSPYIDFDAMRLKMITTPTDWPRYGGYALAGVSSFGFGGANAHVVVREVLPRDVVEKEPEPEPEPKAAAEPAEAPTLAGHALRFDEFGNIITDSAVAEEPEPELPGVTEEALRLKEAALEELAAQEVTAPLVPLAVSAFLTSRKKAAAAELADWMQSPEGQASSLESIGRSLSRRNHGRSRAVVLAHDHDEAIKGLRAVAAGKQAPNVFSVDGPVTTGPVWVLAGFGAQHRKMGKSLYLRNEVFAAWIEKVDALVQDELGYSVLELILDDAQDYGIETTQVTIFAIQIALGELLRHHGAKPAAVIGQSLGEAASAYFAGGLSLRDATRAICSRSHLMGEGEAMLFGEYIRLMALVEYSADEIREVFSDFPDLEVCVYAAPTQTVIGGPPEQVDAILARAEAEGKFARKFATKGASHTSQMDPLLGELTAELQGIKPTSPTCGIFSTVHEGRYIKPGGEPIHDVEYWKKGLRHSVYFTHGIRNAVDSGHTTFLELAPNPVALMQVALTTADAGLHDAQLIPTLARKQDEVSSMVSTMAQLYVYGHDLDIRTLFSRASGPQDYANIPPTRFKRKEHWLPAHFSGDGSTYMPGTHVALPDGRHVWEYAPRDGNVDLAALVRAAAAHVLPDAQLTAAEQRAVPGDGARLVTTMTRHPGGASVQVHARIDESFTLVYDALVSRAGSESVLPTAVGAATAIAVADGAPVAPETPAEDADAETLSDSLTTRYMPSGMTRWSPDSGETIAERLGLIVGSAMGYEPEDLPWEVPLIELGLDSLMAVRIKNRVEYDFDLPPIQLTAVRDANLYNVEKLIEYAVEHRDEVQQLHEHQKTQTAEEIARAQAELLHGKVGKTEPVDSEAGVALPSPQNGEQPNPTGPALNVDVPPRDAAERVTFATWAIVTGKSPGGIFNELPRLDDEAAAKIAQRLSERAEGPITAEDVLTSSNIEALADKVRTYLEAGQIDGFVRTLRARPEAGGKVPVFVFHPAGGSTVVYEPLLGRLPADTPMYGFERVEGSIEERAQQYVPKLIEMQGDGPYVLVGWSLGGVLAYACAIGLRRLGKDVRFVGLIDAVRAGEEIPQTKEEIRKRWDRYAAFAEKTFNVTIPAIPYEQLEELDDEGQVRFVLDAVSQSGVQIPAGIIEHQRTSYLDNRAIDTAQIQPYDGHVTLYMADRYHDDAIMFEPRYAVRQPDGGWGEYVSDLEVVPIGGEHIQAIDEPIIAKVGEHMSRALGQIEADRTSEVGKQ

Each number is a percent effect as filed. The controls that fix the scale are not given in the record; negative values are as filed. This is an unselected part of the compounds tested.

SMILES,Percent Effect
Cn1c(Cn2cccn2)nnc1C1CCN(Cc2cccnc2)CC1,-4.211
CN(CCCNC(=O)Nc1ccc(C#N)cc1)CC(F)(F)F,-3.132
COC(=O)c1cc(C2CC2)nc2c(C#N)cnn12,-7.097
O=C(O)c1cnc(OCC2CC2)c(Br)c1,-30.95
Cc1nc(C(=O)N2CCC(c3cc(CCO)n(C)n3)C2)co1 (stereo unspecified),-19.78
COc1cccc(CCNC(=O)CN2CCN(C)CC2C)c1 (stereo unspecified),-6.248
O=C(Nc1ccc(CCN2CCC(O)CC2)cc1)C1CCCOC1 (stereo unspecified),-12.54
Cc1ccc(NC2(C(=O)NC(C)c3ncn[nH]3)CCCC2)cc1 (stereo unspecified),5.375
Cc1ccsc1CNC1CCCc2c1cnn2C (stereo unspecified),-4.93
C=C(C)COc1ccccc1CN1CCCC(C(=O)NCCCO)C1 (stereo unspecified),-17.97
CC(C)CC(=O)N1CC(=O)c2sc(NC3CCCCC3)nc2C1,18.58
COCCNc1ncc(-c2cc(C)no2)c(-c2ccco2)n1,21.02
CCc1ncncc1C(=O)N1CCOC(c2nc(C)n[nH]2)C1 (stereo unspecified),-8.932
CC[C@@H](Cn1ncc2ccccc2c1=O)NC(=O)c1cnc(C)cn1,1.102
Cc1cc(=O)n(CCNS(=O)(=O)c2ccccc2)cn1,-9.374
O=C(CC1CC1)N[C@@H]1CN(Cc2cccnc2)C[C@@H]2CCCO[C@@H]21,-22.9
CC(C)N(C)C(=O)C1CCC2(CCNCC2)O1 (stereo unspecified),1.563
CCc1ccc(S(=O)(=O)NCCC(O)c2ccoc2)s1 (stereo unspecified),-10.27
CC(c1nc(C2CC2)no1)N1CCN(CCn2ccccc2=O)CC1 (stereo unspecified),-38.8
c1ccc(Cn2cncn2)c(CNCC2CNc3ccnn3C2)c1 (stereo unspecified),-15.73
c1csc(-c2noc(CN3CCCC3Cn3cccn3)n2)c1 (stereo unspecified),3.875
O=C1CC(N(C(=O)c2ccc(Cl)c(Cl)c2)C2CC2)C(=O)N1 (stereo unspecified),21.44
COc1cccnc1NC(=O)c1ccc(COCC(F)(F)F)cc1,4.151
CCOc1ccccc1CN(C)C(C)c1nc(-c2cccnc2)no1 (stereo unspecified),-12.51
CN(C)C(=O)Cn1cc(C(=O)NCCc2cccc(Cl)c2Cl)nn1,-2.487
Cc1ccc(CN2CCc3[nH]nc(C(=O)N4CCNC(=O)C4)c3C2)s1,-29.26
Cc1cc(C)c(CNC(=O)N(C)Cc2cccc(F)c2)c(=O)[nH]1,-12.39
O=c1cc(CSc2nnc[nH]2)nc2sc3c(n12)CCCC3,-71.6
C[C@@H]1C[C@H]2CN(C(=O)c3ccncn3)C[C@H]2O1,2.018
C=C(C)CNc1nc(CS(=O)(=O)c2ccccc2)cs1,-2.797
CC(C)CNC(=O)c1cc2c(s1)CCN2Cc1cccnc1,-31.97
O=C(CCc1nc(-c2cccnc2)no1)N(CC1CCOC1)C1CC1 (stereo unspecified),-13.1
O=C1CCCN1Cc1nnc2n1CCCN(C(=O)c1ccc[nH]1)C2,-6.207
COc1ccnc(N2CCN(C(=O)c3cnn(C)c3C3CC3)CC2)n1,-24.83
CNc1ncc(C(=O)N2CCC(CCc3ccccc3)CC2)cn1,9.189
COc1cccc(F)c1-c1nc2c([nH]1)c(C1CC1)nn2C,-1.374
Cn1c(=O)[nH]c2cc(C(=O)OCCCn3ccccc3=O)ccc21,-11.52
O=C(O)c1c(NC2CCC2)ncc2c1CCN(C1CCOC1)C2 (stereo unspecified),3.248
Cn1nnnc1SC1CCN(c2ccccc2Cl)C1=O (stereo unspecified),-5.742
Cc1nn(C)c2c(N3CCN(C(=O)c4ccccc4)CC3)ncnc12,-21.98
CC(C)n1c(=O)c2ccccc2n(CCN(C)C)c1=O,-5.198
COc1cccc(CN2CCCC3(CCN(C(=O)c4ccco4)C3)C2)c1 (stereo unspecified),-8.023
COCCC(=O)N1CCC(C(=O)c2cc(C)cnc2N)CC1,15.16
CC(=O)N1CCC(NC(=O)c2ccccc2-n2cnnn2)CC1,-15.71
COCCNC(=O)CSc1nnc(OC(C)C)s1,-3.7
Cc1ccc(C(=O)N2CCCN(C)c3ccc(F)cc32)o1,-8.989
COc1cc(CN(C)C(=O)NCc2nccs2)ccc1SC,-25.64
O=C(NCCNc1ccccn1)N1CCSCC1,-3.213
CCCc1cc(NCc2ccc(CO)cc2)n2nccc2n1,-29.8
O=C(c1ccc(-n2cc(Br)cn2)cc1)N1CCN(c2cnccn2)CC1,81.46
CN(Cc1cnn(C)c1)C(=O)NC1CCS(=O)(=O)C1 (stereo unspecified),-10.44
O=C(c1cc(Cl)c2c(c1)OCO2)N1CCN(c2ncccn2)CC1,-13.05
Cc1cccc(OCC(=O)N(C)C2CCN(CC3CCOC3)CC2)c1 (stereo unspecified),-5.989
COCCN1Cc2ccccc2C2(CCN(S(C)(=O)=O)CC2)C1,-19.32
Cn1cc(C(=O)NCC2CCN(C(=O)NC3CC3)CC2)cn1,-10.28
CC(=O)c1ccc(Cl)c(Cl)c1OCC(=O)NC(N)=O,-20.4
Cn1ccc(C(=O)Nc2nnc(-c3ccccn3)[nH]2)cc1=O,3.246
Cc1nc(CN2CCC(N(C)Cc3nnc(C4CC4)n3C)C2)cs1 (stereo unspecified),6.095
COc1c(C2CCCN2C(=O)c2cccnc2N(C)C)c(C)nn1C (stereo unspecified),-17.27
Cn1nnc(NCc2ccc(-c3ccc(Cl)cc3)o2)n1,12.92
Cc1ncc(CNC2CC(=O)N(CCc3ccc(F)cc3)C2)n1C (stereo unspecified),-6.008
COCC(C)NC(=O)CSc1ccc(F)c(Cl)c1 (stereo unspecified),-24.38
Cc1ccc(C)c(-n2cc(CN3CC[C@@H](O)C3)c(-c3ccccc3)n2)c1,-51.43
COCCCNC(=O)COc1ccccc1C(F)(F)F,-6.296
CC(C)NC(=O)C1CN(C(=O)Cc2cccc(F)c2)CC12CCOCC2 (stereo unspecified),10.98
CC(C)c1cc(NC(=O)CN2CCc3cncnc3C2)on1,-0.9531
CC(C)c1nccn1C(C)C(=O)N1CCN(S(C)(=O)=O)CC1 (stereo unspecified),-14.51
CCN1CCN(c2ccc(CNC(=O)c3c(C)noc3C)cn2)CC1,-18.17
CCCC(=O)N1CCCC1(C)c1nc(C)no1 (stereo unspecified),-1.481
O=C1CC2(CCCNC2)C(=O)N1Cc1ccc(F)cc1 (stereo unspecified),-5.823
CCOC(=O)CCNC(=O)N1CCCC(CNC(=O)c2ccco2)C1 (stereo unspecified),-2.202
CCC(CO)N(Cc1ccc(F)cc1)Cc1c(C)nn(C)c1Cl (stereo unspecified),-9.556
COCCCNC(=O)c1cc(OC)c2ccoc2c1,-16.96
Cc1cnn(CC2CCN(CC(O)CN3CCC(C)CC3)CC2)c1 (stereo unspecified),-26.31
O=C1CCC[C@]2(CN(S(=O)(=O)N3CCOCC3)C[C@H]2c2cccnc2)N1,1.856
O=C(CNC(=O)c1ccccc1F)NCc1ccccn1,-0.9071
Cc1ccc2nc(CNCCCOc3ccccc3)cc(O)c2c1,-18.17
CCOC(=O)Cn1ccc(O)c(Cc2ccc(Cl)cc2Cl)c1=O,-7.904
COCc1nc2cc(NCc3scnc3C)ccc2o1,-12
c1csc(-c2nc(CN3CCOC(Cn4cncn4)C3)co2)c1 (stereo unspecified),-9.954
Cc1nc(CN(C)C2CCN(Cc3sc(C)nc3C)C2)no1 (stereo unspecified),-4.952

The values are deposited in ChEMBL (CHEMBL3988442, “University of Dundee, Small-Polar-MMV Screening Library” (2021)).